Measured values as given in patent publication US20180334499A1 (Pieris, published 2018).
Substitutions are numbered along the chain they refer to. Results are given in words; binding and its absence hold for the method and conditions named. Some entries that bind do so weakly or less than the wild type. One block for each binder: values may come before it.

Key:
recombinant human Ang-2 [1] = target: T1, recombinant human Ang-2 (human, UniProt O15123 19-496, limits assumed); experiment: ELISA, human Ang-2 coated
T1 construct: also called hAng-2; human angiopoietin-2
T1 sequence (looked up): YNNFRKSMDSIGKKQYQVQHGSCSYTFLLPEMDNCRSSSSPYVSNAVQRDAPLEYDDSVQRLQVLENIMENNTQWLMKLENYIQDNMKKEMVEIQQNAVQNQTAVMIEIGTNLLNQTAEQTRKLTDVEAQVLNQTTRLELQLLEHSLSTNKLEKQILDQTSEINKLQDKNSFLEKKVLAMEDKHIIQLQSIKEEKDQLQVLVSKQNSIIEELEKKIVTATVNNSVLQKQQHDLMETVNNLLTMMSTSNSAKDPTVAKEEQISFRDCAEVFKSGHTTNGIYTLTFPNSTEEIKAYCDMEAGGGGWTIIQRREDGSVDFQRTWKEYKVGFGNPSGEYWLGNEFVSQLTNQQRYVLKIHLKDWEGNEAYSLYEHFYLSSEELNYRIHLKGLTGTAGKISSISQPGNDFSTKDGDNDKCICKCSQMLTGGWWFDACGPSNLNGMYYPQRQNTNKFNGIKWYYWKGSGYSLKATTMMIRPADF

recombinant human Ang-2 [2] = target: T1, recombinant human Ang-2; experiment: ELISA, recombinant human Ang-2 coated, detection with anti-human IgG Fc-HRP or anti-lipocalin-HRP, signal normalised (RU %)
Method: Bound agents under study were detected via an anti-human-IgG-Fc antibody or anti-lipocalin antibody as described in Example 3. The data was fit with a 1:1 binding model with EC50 value and the maximum signal as free parameters, and a slope that was fixed to unity.
The target was dissolved in PBS (5 μg/mL) and coated overnight on microtiter plates at 4° C. The plate was washed after each incubation step with 80 μL PBS-T five times. The plates were blocked with 2% BSA (w/v) in PBS for 1 h at room temperature and subsequently washed. […] Bound agents under study were detected after incubation for 1 h at room temperature with 1:1000 diluted anti-lipocalin antibody conjugated to HRP in PBS-T or 1:5000 diluted anti-human IgG Fc-HRP (#109-035-098, Jackson […]) in PBS-T. After an additional wash step, fluorogenic HRP substrate (QuantaBlu, Thermo) was added to each well and the fluorescence intensity was detected using a fluorescence microplate reader.

recombinant human Ang-2 [3] = target: T1, recombinant human Ang-2; experiment: competition cell ECL: constant human Ang-2 pre-incubated with the titrated agent, free Ang-2 captured on hTie-2 overexpressing HEK cells, detected by anti-HIS-tag antibody

binding (recombinant human Ang-2 [1]): binds | binding (recombinant human Ang-2 [2]): binds | binding (recombinant human Ang-2 [3]): binds
B1: lipocalin mutein of SEQ ID NO: 2 (designed binder)
chain: QDSTSDLIPAPPLSKVPLQQNFQDNQFHGKWYVVGQAGNYILREDKDPGKMWATIYELKEDKSYDVTEVSFGAKKCNYRIWTFVPGSQPGEFTLGGIKSDPGGTSTLVRVVSTNYNQHAMVFFKHVLQNREFFEITLYGRTKELTSELKENFIRFSKSLGLPENHIVFPVPIDQCIDG
notes: hNGAL mutein specific for Ang-2, tested in monomeric form; also called positive control lipocalin mutein; Ang-2-specific lipocalin mutein in monomeric form

binding (recombinant human Ang-2 [1]): binds | binding (recombinant human Ang-2 [2]): binds | binding (recombinant human Ang-2 [3]): binds
B2: lipocalin mutein of SEQ ID NO: 3 (designed binder)
chain: B1 chain with Q36H, A73P, D100P
notes: as for B1
